PubChem BioAssay AID1508597 | Cure First, 2020

- Aim: 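Genes whose silencing sensitises or protects ovarian cancer cells against rucaparib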 (primary screen)
- Cell system: human ovarian carcinoma lines grown from tumours: OCI-P5x (papillary serous) and OCI-C5x (clear cell)
- Knock-down reagent: siRNA pool against human genes, 1.25 pmol siRNA per well
- Timing: 72 h or 96 h, depending on the cell culture
- Conditions: rucaparib 20 µM (about IC30) or vehicle, present until read-out
- Read-out: 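Luminescent ATP-based viability assay read 72 or 96 h after transfection, depending on culture, given as normalised percent viability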
- Scale: viability, normalised: higher = more viable cells remaining
- Hit rule: 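Active when normalised viability falls below 80 percent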
- Meaning of the calls: active = viability under 80%; inactive = viability 80% or more
Here is an unselected part of about 2,100 reagents. 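Calls flag viability under 80% in either arm, not effects specific to rucaparib; the reference for percent is not stated.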 No sequences are given here. Not stated in the record: the 100% reference.

The first 6 entries, to show the layout:
| Gene | rucaparib or vehicle | cell line | technical replicate | viability, normalised (%) | activity call |
| --- | --- | --- | --- | --- | --- |
| CAMK1D (calcium/calmodulin dependent protein kinase ID) | Rucaparib | OCI-C5x (clear cell) | 1 | 65.5 | active |
| CAMK1D (calcium/calmodulin dependent protein kinase ID) | Rucaparib | OCI-C5x (clear cell) | 2 | 62.4 | active |
| CAMK1D (calcium/calmodulin dependent protein kinase ID) | Rucaparib | OCI-C5x (clear cell) | 3 | 73.4 | active |
| CAMK1D (calcium/calmodulin dependent protein kinase ID) | Rucaparib | OCI-P5x (serous) | 1 | 118 | inactive |
| CAMK1D (calcium/calmodulin dependent protein kinase ID) | Rucaparib | OCI-P5x (serous) | 2 | 109 | inactive |
| CAMK1D (calcium/calmodulin dependent protein kinase ID) | Rucaparib | OCI-P5x (serous) | 3 | 75.2 | active |

Results, from the first entry:
| Gene | rucaparib or vehicle | cell line | technical replicate | viability, normalised (%) | activity call |
| --- | --- | --- | --- | --- | --- |
| CAMK1D (calcium/calmodulin dependent protein kinase ID) | Rucaparib | OCI-C5x (clear cell) | 1 | 65.5 | active |
| CAMK1D (calcium/calmodulin dependent protein kinase ID) | Rucaparib | OCI-C5x (clear cell) | 2 | 62.4 | active |
| CAMK1D (calcium/calmodulin dependent protein kinase ID) | Rucaparib | OCI-C5x (clear cell) | 3 | 73.4 | active |
| CAMK1D (calcium/calmodulin dependent protein kinase ID) | Rucaparib | OCI-P5x (serous) | 1 | 118 | inactive |
| CAMK1D (calcium/calmodulin dependent protein kinase ID) | Rucaparib | OCI-P5x (serous) | 2 | 109 | inactive |
| CAMK1D (calcium/calmodulin dependent protein kinase ID) | Rucaparib | OCI-P5x (serous) | 3 | 75.2 | active |
| CAMK1D (calcium/calmodulin dependent protein kinase ID) | Vehicle | OCI-C5x (clear cell) | 1 | 64.3 | active |
| CAMK1D (calcium/calmodulin dependent protein kinase ID) | Vehicle | OCI-C5x (clear cell) | 2 | 51.3 | active |
| CAMK1D (calcium/calmodulin dependent protein kinase ID) | Vehicle | OCI-C5x (clear cell) | 3 | 54.4 | active |
| CAMK1D (calcium/calmodulin dependent protein kinase ID) | Vehicle | OCI-P5x (serous) | 1 | 96.3 | inactive |
| CAMK1D (calcium/calmodulin dependent protein kinase ID) | Vehicle | OCI-P5x (serous) | 2 | 92.2 | inactive |
| CAMK1D (calcium/calmodulin dependent protein kinase ID) | Vehicle | OCI-P5x (serous) | 3 | 97.6 | inactive |
| TERT (telomerase reverse transcriptase) | Rucaparib | OCI-C5x (clear cell) | 1 | 48 | active |
| TERT (telomerase reverse transcriptase) | Rucaparib | OCI-C5x (clear cell) | 2 | 54.8 | active |
| TERT (telomerase reverse transcriptase) | Rucaparib | OCI-C5x (clear cell) | 3 | 45.3 | active |
| TERT (telomerase reverse transcriptase) | Rucaparib | OCI-P5x (serous) | 1 | 70.2 | active |
| TERT (telomerase reverse transcriptase) | Rucaparib | OCI-P5x (serous) | 2 | 88 | inactive |
| TERT (telomerase reverse transcriptase) | Rucaparib | OCI-P5x (serous) | 3 | 71.3 | active |
| TERT (telomerase reverse transcriptase) | Vehicle | OCI-C5x (clear cell) | 1 | 46.6 | active |
| TERT (telomerase reverse transcriptase) | Vehicle | OCI-C5x (clear cell) | 2 | 59.9 | active |
| TERT (telomerase reverse transcriptase) | Vehicle | OCI-C5x (clear cell) | 3 | 51.9 | active |
| TERT (telomerase reverse transcriptase) | Vehicle | OCI-P5x (serous) | 1 | 71.9 | active |
| TERT (telomerase reverse transcriptase) | Vehicle | OCI-P5x (serous) | 2 | 70.6 | active |
| TERT (telomerase reverse transcriptase) | Vehicle | OCI-P5x (serous) | 3 | 65 | active |
| PRDM8 (PR/SET domain 8) | Rucaparib | OCI-C5x (clear cell) | 1 | 46.1 | active |
| PRDM8 (PR/SET domain 8) | Rucaparib | OCI-C5x (clear cell) | 2 | 33.4 | active |
| PRDM8 (PR/SET domain 8) | Rucaparib | OCI-C5x (clear cell) | 3 | 34.9 | active |
| PRDM8 (PR/SET domain 8) | Rucaparib | OCI-P5x (serous) | 1 | 41.2 | active |
| PRDM8 (PR/SET domain 8) | Rucaparib | OCI-P5x (serous) | 2 | 47.5 | active |
| PRDM8 (PR/SET domain 8) | Rucaparib | OCI-P5x (serous) | 3 | 47 | active |
| PRDM8 (PR/SET domain 8) | Vehicle | OCI-C5x (clear cell) | 1 | 39.9 | active |
| PRDM8 (PR/SET domain 8) | Vehicle | OCI-C5x (clear cell) | 2 | 21.2 | active |
| PRDM8 (PR/SET domain 8) | Vehicle | OCI-C5x (clear cell) | 3 | 36.7 | active |
| PRDM8 (PR/SET domain 8) | Vehicle | OCI-P5x (serous) | 1 | 50.5 | active |
| PRDM8 (PR/SET domain 8) | Vehicle | OCI-P5x (serous) | 2 | 60.6 | active |
| PRDM8 (PR/SET domain 8) | Vehicle | OCI-P5x (serous) | 3 | 75.9 | active |
| PCDHB5 (protocadherin beta 5) | Rucaparib | OCI-C5x (clear cell) | 1 | 48.2 | active |
| PCDHB5 (protocadherin beta 5) | Rucaparib | OCI-C5x (clear cell) | 2 | 43.4 | active |
| PCDHB5 (protocadherin beta 5) | Rucaparib | OCI-C5x (clear cell) | 3 | 43 | active |
| PCDHB5 (protocadherin beta 5) | Rucaparib | OCI-P5x (serous) | 1 | 57.8 | active |
| PCDHB5 (protocadherin beta 5) | Rucaparib | OCI-P5x (serous) | 2 | 60.3 | active |
| PCDHB5 (protocadherin beta 5) | Rucaparib | OCI-P5x (serous) | 3 | 55 | active |
| PCDHB5 (protocadherin beta 5) | Vehicle | OCI-C5x (clear cell) | 1 | 36.8 | active |
| PCDHB5 (protocadherin beta 5) | Vehicle | OCI-C5x (clear cell) | 2 | 40.4 | active |
| PCDHB5 (protocadherin beta 5) | Vehicle | OCI-C5x (clear cell) | 3 | 26.5 | active |
| PCDHB5 (protocadherin beta 5) | Vehicle | OCI-P5x (serous) | 1 | 68.3 | active |
| PCDHB5 (protocadherin beta 5) | Vehicle | OCI-P5x (serous) | 2 | 71.4 | active |
| PCDHB5 (protocadherin beta 5) | Vehicle | OCI-P5x (serous) | 3 | 87.3 | inactive |
| GMEB1 (glucocorticoid modulatory element binding protein 1) | Rucaparib | OCI-C5x (clear cell) | 1 | 43.6 | active |
| GMEB1 (glucocorticoid modulatory element binding protein 1) | Rucaparib | OCI-C5x (clear cell) | 2 | 32.2 | active |
| GMEB1 (glucocorticoid modulatory element binding protein 1) | Rucaparib | OCI-C5x (clear cell) | 3 | 36.6 | active |
| GMEB1 (glucocorticoid modulatory element binding protein 1) | Rucaparib | OCI-P5x (serous) | 1 | 55 | active |
| GMEB1 (glucocorticoid modulatory element binding protein 1) | Rucaparib | OCI-P5x (serous) | 2 | 32.9 | active |
| GMEB1 (glucocorticoid modulatory element binding protein 1) | Rucaparib | OCI-P5x (serous) | 3 | 47.5 | active |
| GMEB1 (glucocorticoid modulatory element binding protein 1) | Vehicle | OCI-C5x (clear cell) | 1 | 43.2 | active |
| GMEB1 (glucocorticoid modulatory element binding protein 1) | Vehicle | OCI-C5x (clear cell) | 2 | 51 | active |
| GMEB1 (glucocorticoid modulatory element binding protein 1) | Vehicle | OCI-C5x (clear cell) | 3 | 38.9 | active |
| GMEB1 (glucocorticoid modulatory element binding protein 1) | Vehicle | OCI-P5x (serous) | 1 | 53.8 | active |
| GMEB1 (glucocorticoid modulatory element binding protein 1) | Vehicle | OCI-P5x (serous) | 2 | 55.2 | active |
| GMEB1 (glucocorticoid modulatory element binding protein 1) | Vehicle | OCI-P5x (serous) | 3 | 52.4 | active |
